{"source": "PubChem BioAssay AID504764 (Drosophila RNAi Screening Center, 2011)", "assay": "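Knock-downs that raise or lower a Notch target reporter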 (primary screen)", "system": "Drosophila Kc167 cells", "reagent": "long dsRNA against Drosophila genes", "time to read-out": "about 5 days (4 days dsRNA, then 24 h after transfection)", "challenge": "transfection of constitutively active membrane-tethered Notch lacking the extracellular domain, read 24 h later", "read-out": "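Firefly luciferase from an E(spl)m3 reporter with active Notch, plus control-promoter and uninduced reporter wells for normalisation; unnormalised counts, duplicate wells a and b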", "scale": "induced reporter light, run 1, well a and induced reporter light, run 1, well b: higher = more light from the Notch target reporter with active Notch; control promoter light, run 1, well a and control promoter light, run 1, well b: higher = more light from the viral control promoter (cell number, transfection, viability); uninduced reporter light, run 1, well a: higher = more light from the Notch target reporter without active Notch", "rule for the call": "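Wells with low control signal or poorly matching duplicates excluded; duplicates averaged; per source plate, z beyond ±2 for induced/control log2 ratio or beyond ±1.8 for induced/uninduced marks a hit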", "meaning of the calls": "active = modifier hit (raised or lowered Notch signal); inactive = not a hit", "note": "The screen tested about 22,000 reagents; shown is an unselected part of those with a known target gene and a result. In the full data, 403 (1.9%) were called active. 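Unnormalised raw counts per well; ratio z-scores behind the hit calls and whether each hit raises or lowers signal are not deposited.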 The record does not give: the amount of reagent."}
{"target": "CG33003", "amplicon": "DRSC22419", "outcome": "inactive"}
{"target": "Gapvd1 (GTPase activating protein and VPS9 domains 1)", "amplicon": "DRSC19752", "induced reporter light, run 1, well a": 1.06e5, "induced reporter light, run 1, well b": 90435, "control promoter light, run 1, well a": 1.60e5, "control promoter light, run 1, well b": 1.21e5, "uninduced reporter light, run 1, well a": 7000, "outcome": "inactive"}
{"target": "aurB (aurora B)", "amplicon": "DRSC03548", "induced reporter light, run 1, well a": 96245, "induced reporter light, run 1, well b": 97060, "control promoter light, run 1, well a": 1.54e5, "control promoter light, run 1, well b": 1.52e5, "uninduced reporter light, run 1, well a": 10690, "outcome": "active"}
{"target": "Elp4 (Elongator complex protein 4)", "amplicon": "DRSC02999", "induced reporter light, run 1, well a": 2.92e5, "induced reporter light, run 1, well b": 2.16e5, "control promoter light, run 1, well a": 53400, "control promoter light, run 1, well b": 41805, "uninduced reporter light, run 1, well a": 15480, "outcome": "inactive"}

The list goes on; the last 2 above are carried over.
{"target": "aurB (aurora B)", "amplicon": "DRSC03548", "induced reporter light, run 1, well a": 96245, "induced reporter light, run 1, well b": 97060, "control promoter light, run 1, well a": 1.54e5, "control promoter light, run 1, well b": 1.52e5, "uninduced reporter light, run 1, well a": 10690, "outcome": "active"}
{"target": "Elp4 (Elongator complex protein 4)", "amplicon": "DRSC02999", "induced reporter light, run 1, well a": 2.92e5, "induced reporter light, run 1, well b": 2.16e5, "control promoter light, run 1, well a": 53400, "control promoter light, run 1, well b": 41805, "uninduced reporter light, run 1, well a": 15480, "outcome": "inactive"}
{"target": "CG7730", "amplicon": "DRSC10909", "induced reporter light, run 1, well a": 1.03e5, "induced reporter light, run 1, well b": 1.45e5, "control promoter light, run 1, well a": 64990, "control promoter light, run 1, well b": 73480, "uninduced reporter light, run 1, well a": 9020, "outcome": "inactive"}
{"target": "CG4069", "amplicon": "DRSC10396", "induced reporter light, run 1, well a": 1.04e5, "induced reporter light, run 1, well b": 80490, "control promoter light, run 1, well a": 61190, "control promoter light, run 1, well b": 40140, "uninduced reporter light, run 1, well a": 8245, "outcome": "inactive"}
{"target": "CG4053", "amplicon": "DRSC15538", "induced reporter light, run 1, well a": 2.41e5, "induced reporter light, run 1, well b": 2.67e5, "control promoter light, run 1, well a": 2.00e5, "control promoter light, run 1, well b": 2.10e5, "uninduced reporter light, run 1, well a": 18960, "outcome": "inactive"}
{"target": "UQCR-6.4 (Ubiquinol-cytochrome c reductase 6.4 kDa subunit)", "amplicon": "DRSC06454", "induced reporter light, run 1, well a": 61495, "induced reporter light, run 1, well b": 54330, "control promoter light, run 1, well a": 67465, "control promoter light, run 1, well b": 92550, "uninduced reporter light, run 1, well a": 7715, "outcome": "inactive"}
{"target": "CG6695", "amplicon": "DRSC16098", "induced reporter light, run 1, well a": 1.68e5, "induced reporter light, run 1, well b": 1.67e5, "control promoter light, run 1, well a": 1.87e5, "control promoter light, run 1, well b": 1.94e5, "uninduced reporter light, run 1, well a": 13835, "outcome": "inactive"}
{"target": "sut4 (sugar transporter 4)", "amplicon": "DRSC07703", "induced reporter light, run 1, well a": 15480, "induced reporter light, run 1, well b": 14440, "control promoter light, run 1, well a": 17885, "control promoter light, run 1, well b": 15450, "uninduced reporter light, run 1, well a": 1295, "outcome": "inactive"}
{"target": "bbc (bb in a boxcar)", "amplicon": "DRSC06958", "induced reporter light, run 1, well a": 1.79e5, "induced reporter light, run 1, well b": 1.92e5, "control promoter light, run 1, well a": 1.63e5, "control promoter light, run 1, well b": 1.96e5, "uninduced reporter light, run 1, well a": 18550, "outcome": "inactive"}
{"target": "bbc (bb in a boxcar)", "amplicon": "DRSC22309", "outcome": "inactive"}
